Test results as given in the supplement of paper PMC12819154, “High-throughput peptide-centric local stability assay extends protein–ligand identification to membrane proteins, tissues and bacteria” (Nature Structural & Molecular Biology, 2025).
The other results are listed elsewhere or left out. Most values lie at the level of the controls, where differences are scatter.

Protein sequences, listed by entry. Tags and fused reporters are not part of them. Lines headed by an entry give the natural chain unless they say otherwise; changes in a name come on top.
UniProt P61028: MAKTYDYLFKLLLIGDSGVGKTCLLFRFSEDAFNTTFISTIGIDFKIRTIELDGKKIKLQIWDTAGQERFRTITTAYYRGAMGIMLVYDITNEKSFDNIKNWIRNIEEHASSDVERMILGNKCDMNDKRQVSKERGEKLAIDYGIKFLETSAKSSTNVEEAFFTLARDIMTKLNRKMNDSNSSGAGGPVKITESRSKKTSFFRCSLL
UniProt P57722, whole entry: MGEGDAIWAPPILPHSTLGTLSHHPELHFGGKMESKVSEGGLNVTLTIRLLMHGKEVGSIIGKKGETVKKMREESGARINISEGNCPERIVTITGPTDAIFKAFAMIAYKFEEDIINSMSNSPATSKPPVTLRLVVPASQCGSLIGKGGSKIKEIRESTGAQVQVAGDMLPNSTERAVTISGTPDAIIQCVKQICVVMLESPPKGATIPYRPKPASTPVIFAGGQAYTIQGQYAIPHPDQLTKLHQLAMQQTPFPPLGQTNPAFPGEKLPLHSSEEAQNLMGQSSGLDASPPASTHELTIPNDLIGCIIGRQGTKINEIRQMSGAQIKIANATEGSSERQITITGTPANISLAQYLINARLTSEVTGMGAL
UniProt P56960: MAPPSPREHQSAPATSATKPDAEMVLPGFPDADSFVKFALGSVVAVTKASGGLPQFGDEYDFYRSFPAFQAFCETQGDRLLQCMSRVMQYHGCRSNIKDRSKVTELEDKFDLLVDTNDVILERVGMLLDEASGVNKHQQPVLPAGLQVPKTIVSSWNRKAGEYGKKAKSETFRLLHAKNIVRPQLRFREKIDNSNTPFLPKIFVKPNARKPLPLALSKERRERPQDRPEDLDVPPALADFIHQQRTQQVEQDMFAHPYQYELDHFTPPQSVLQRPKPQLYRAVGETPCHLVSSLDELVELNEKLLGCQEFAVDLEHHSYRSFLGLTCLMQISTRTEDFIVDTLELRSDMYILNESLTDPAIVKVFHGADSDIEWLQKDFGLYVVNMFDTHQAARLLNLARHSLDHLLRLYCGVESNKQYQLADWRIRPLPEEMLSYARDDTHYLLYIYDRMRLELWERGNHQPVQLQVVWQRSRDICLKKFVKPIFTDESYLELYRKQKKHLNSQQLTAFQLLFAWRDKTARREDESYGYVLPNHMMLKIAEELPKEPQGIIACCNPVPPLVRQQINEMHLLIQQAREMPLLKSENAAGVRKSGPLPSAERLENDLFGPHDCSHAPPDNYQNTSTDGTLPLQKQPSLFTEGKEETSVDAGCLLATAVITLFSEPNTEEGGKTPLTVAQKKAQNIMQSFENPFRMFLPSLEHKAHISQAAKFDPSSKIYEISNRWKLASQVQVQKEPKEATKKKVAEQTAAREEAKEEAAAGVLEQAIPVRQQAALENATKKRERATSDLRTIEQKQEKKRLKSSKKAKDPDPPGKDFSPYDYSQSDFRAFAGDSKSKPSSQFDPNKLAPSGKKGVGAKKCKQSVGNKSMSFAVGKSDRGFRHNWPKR
UniProt P56135: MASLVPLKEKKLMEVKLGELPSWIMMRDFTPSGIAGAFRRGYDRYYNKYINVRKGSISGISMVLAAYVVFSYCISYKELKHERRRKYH
UniProt P56477: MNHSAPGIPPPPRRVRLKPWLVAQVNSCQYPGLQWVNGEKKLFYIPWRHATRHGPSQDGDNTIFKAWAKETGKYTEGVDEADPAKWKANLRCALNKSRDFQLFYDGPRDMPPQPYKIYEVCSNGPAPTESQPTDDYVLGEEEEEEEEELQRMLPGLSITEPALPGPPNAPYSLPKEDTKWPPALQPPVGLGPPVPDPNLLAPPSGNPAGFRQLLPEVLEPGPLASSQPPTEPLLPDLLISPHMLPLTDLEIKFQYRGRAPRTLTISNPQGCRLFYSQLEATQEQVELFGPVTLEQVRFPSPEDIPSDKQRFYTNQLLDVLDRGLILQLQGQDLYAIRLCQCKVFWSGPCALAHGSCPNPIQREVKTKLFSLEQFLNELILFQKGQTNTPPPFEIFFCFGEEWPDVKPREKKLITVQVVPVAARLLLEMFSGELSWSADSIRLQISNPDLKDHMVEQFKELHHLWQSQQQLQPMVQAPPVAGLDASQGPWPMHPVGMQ
UniProt P59808: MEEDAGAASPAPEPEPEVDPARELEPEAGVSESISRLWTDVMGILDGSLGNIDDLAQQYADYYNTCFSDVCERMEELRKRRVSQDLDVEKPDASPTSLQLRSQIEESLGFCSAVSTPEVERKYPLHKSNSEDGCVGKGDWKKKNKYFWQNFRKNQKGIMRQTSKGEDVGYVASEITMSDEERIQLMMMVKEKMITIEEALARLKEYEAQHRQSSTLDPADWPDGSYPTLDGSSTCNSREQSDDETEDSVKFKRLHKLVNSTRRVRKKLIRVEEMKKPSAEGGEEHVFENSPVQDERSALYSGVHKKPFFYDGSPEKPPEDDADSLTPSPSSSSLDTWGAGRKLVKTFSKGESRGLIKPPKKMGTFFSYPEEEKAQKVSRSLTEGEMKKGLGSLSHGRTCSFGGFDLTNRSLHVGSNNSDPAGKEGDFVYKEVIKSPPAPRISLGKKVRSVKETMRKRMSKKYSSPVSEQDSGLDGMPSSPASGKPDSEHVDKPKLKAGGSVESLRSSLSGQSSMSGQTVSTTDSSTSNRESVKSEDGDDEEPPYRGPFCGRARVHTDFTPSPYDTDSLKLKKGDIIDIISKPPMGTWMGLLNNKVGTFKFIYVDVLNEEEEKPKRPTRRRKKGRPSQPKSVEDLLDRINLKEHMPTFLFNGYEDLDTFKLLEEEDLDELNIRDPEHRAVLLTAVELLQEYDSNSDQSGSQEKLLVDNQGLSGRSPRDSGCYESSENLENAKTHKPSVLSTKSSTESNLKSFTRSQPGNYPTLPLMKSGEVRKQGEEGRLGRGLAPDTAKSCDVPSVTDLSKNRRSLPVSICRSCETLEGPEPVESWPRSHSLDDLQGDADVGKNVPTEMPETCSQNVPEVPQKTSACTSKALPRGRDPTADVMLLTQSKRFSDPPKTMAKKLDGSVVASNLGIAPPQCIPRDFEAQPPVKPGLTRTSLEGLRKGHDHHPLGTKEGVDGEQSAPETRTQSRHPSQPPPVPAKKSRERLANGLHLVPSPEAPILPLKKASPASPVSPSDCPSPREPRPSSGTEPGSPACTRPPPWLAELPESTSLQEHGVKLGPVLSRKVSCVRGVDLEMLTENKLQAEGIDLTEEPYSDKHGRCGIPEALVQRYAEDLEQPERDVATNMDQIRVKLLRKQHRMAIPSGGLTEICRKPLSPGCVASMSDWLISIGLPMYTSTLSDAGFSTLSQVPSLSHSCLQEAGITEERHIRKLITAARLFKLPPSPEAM
UniProt P54761: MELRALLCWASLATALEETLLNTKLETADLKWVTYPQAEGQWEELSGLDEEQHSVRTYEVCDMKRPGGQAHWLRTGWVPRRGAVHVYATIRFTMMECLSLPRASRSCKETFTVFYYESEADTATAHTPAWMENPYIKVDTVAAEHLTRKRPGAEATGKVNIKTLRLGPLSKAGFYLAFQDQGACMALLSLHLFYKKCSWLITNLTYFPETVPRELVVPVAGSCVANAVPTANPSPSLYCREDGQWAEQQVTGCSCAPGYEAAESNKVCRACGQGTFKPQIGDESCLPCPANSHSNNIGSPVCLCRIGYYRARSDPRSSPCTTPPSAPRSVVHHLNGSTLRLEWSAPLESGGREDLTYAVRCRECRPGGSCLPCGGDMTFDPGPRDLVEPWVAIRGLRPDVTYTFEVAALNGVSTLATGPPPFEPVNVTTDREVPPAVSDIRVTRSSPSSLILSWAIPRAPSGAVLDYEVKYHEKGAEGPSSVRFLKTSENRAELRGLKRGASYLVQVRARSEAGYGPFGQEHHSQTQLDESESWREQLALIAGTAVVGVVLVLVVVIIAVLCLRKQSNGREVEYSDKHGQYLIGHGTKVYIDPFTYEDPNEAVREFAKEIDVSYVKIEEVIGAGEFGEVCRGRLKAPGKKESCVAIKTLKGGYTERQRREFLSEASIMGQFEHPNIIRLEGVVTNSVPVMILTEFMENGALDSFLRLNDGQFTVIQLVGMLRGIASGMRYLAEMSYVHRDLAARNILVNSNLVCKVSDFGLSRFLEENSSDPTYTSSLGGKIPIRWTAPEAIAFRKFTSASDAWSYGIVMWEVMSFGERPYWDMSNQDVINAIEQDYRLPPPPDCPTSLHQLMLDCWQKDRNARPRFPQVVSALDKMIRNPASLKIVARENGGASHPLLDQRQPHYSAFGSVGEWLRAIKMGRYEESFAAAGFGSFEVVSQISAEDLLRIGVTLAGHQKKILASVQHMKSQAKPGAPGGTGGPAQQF
UniProt P56183: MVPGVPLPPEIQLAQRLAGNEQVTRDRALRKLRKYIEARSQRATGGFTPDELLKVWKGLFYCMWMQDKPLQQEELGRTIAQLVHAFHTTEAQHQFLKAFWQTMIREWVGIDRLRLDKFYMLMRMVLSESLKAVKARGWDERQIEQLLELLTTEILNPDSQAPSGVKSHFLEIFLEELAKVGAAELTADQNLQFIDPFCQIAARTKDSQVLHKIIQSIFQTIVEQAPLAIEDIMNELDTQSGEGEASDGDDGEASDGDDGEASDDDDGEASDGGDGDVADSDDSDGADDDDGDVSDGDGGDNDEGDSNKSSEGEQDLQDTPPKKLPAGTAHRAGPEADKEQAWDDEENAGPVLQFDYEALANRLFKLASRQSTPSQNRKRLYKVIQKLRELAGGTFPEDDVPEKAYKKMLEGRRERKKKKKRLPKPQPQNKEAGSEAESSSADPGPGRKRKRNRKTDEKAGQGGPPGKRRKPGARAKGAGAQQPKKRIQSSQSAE
UniProt P57784: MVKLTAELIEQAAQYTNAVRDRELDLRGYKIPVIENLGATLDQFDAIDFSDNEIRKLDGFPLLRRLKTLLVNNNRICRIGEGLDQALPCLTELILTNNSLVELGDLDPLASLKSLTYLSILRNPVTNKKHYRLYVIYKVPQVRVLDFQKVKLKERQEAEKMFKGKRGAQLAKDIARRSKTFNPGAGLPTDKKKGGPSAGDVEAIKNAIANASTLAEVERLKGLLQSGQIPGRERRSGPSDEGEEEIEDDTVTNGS

Compound: CN[C@@H]1C[C@H]2O[C@@](C)([C@@H]1OC)n1c3ccccc3c3c4c(c5c6ccccc6n2c5c31)C(=O)NC4 [staurosporine]
Test: log2 fold change of tryptic peptide abundance, ligand vs vehicle (limited proteolysis) (log2 ratio); higher = more trypsin-susceptible (destabilized)
Details: ligand concentration: 20 uM; sample: mouse liver crude lysate; replicate design: treated separately

Row | Target | log2 fold change
1 | UniProt P61028 (peptide sequence: MNDSNSSGAGGPVKITESR, peptide start residue: 177) | -0.137
2 | UniProt P57722 (peptide sequence: IANATEGSSER, peptide start residue: 329) | -0.315
3 | UniProt P56960 (peptide sequence: SGPLPSAER, peptide start residue: 593) | 0.287
4 | UniProt P56135 (peptide sequence: ASLVPLKEK, peptide start residue: 2) | -0.0696
5 | UniProt P56477 (peptide sequence: KLITVQVVPVAAR, peptide start residue: 411) | -0.744
6 | UniProt P59808 (peptide sequence: HPSQPPPVPAKK, peptide start residue: 971) | 0.41
7 | UniProt P54761 (peptide sequence: ENGGASHPLLDQR, peptide start residue: 890) | -0.244
8 | UniProt P56183 (peptide sequence: AFWQTMIR, peptide start residue: 98) | 0.34
9 | UniProt P58771 (peptide sequence: CAELEEELKTVTNNLK, peptide start residue: 190) | -0.119
10 | UniProt P57784 (peptide sequence: GGPSAGDVEAIK, peptide start residue: 194) | 0.0935
11 | UniProt P58774 (peptide sequence: LVILEGELER, peptide start residue: 169) | 0.223

Pulled one by one from the entries so far:
Row | Target | log2 fold change
5 | UniProt P56477 (peptide sequence: KLITVQVVPVAAR, peptide start residue: 411) | -0.744
8 | UniProt P56183 (peptide sequence: AFWQTMIR, peptide start residue: 98) | 0.34
